Results taken from patent publication US4520026A, “Indolizine derivatives and use as cardiovascular agents” (S. A. Labaz N.V., priority 1982, dated 1985).
Values joined by “and” are separate entries in the source; they are usually repeats but may differ in a detail not shown here. Equal values may be shown once. The name of at least one read-out is uncertain.

System: blood-flow to the myocardium
Test: Effect on blood-flow to the myocardium, anaesthetized dogs, intravenous
Assay type: in vivo
Settings: dose 10 mg/kg i.v., anaesthetized dog
Experimental: It was undertaken on anaesthetized dogs which received the substance under study by intravenous route. The intensity of the maximum effect on blood-flow to the myocardium was expressed in percentage of the corresponding value before injection. The time required for the maximum effect to decrease by 50% represented the duration of the effect. This time was measured in minutes.

CCCCN(CCCC)CCCOc1ccc(C(=O)c2c(C)c(Br)c3ccccn23)cc1Br [Br/Br/H/CH3/n-C4H9/3, 1-Bromo-2-methyl-3-[4-(3-di-n-butylaminopropyl)-oxy-3-bromo-benzoyl]-indolizine]
Max. increase (blood-flow to the myocardium): 77% and 125%
Time required to decrease to 50% (duration of effect): 45 min and 40 min
